This is one part of the list.
Assays:
Assay in all cases: log2 fold change, soluble protein after heating vs DMSO (PISA); higher = thermal stabilisation; K562 cells, 10 uM, 30 min; active = over 0.2 and 3.5 SD of the protein, either way, in both replicates (recomputed)
[1] = compound: CS(=O)(=O)c1ccc(-c2cnc(N)c(C(=O)Nc3ccccc3)n2)cc1
Summary of the method: (§1)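 K562 cells at 2×10^6 cells/mL were treated with 10 μM compound for 30 min. Aliquots were heated for 3 min across 48°C-58°C, pooled, and extracted in PBS with 0.5% NP-40 at 4°C; soluble protein was the supernatant after 21,000xg for 90 min. Soluble protein was quantified by TMTpro 16plex LC-MS/MS with channel sums equalised, and reported as log2 fold change in thermal stability against DMSO controls, with values from duplicates.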

Protein sequences, listed by entry. Tags and fused reporters are not part of them. Lines headed by an entry give the natural chain unless they say otherwise; changes in a name come on top.
UniProt P46734: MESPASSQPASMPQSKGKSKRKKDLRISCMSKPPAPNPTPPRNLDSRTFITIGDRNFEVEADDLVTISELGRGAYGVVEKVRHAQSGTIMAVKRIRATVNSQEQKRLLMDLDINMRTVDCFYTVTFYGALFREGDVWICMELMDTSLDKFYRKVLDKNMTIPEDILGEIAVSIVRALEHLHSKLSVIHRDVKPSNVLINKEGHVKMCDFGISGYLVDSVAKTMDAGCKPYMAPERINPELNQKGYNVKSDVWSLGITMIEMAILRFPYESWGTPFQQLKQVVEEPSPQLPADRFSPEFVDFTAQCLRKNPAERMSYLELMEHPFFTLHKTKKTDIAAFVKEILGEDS
UniProt P07948: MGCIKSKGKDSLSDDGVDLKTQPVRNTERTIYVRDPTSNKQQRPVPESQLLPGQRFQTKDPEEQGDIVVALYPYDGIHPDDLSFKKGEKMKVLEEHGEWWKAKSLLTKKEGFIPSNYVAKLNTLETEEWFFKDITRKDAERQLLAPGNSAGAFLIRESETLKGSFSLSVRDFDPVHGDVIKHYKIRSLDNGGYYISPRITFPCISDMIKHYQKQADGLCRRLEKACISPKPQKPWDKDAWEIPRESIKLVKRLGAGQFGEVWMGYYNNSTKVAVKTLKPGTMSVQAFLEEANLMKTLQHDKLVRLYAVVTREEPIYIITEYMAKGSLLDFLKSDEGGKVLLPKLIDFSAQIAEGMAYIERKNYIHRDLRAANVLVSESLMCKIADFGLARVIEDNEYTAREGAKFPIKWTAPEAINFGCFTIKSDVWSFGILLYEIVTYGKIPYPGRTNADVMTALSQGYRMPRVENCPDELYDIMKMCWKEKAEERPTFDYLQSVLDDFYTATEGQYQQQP
UniProt Q92585: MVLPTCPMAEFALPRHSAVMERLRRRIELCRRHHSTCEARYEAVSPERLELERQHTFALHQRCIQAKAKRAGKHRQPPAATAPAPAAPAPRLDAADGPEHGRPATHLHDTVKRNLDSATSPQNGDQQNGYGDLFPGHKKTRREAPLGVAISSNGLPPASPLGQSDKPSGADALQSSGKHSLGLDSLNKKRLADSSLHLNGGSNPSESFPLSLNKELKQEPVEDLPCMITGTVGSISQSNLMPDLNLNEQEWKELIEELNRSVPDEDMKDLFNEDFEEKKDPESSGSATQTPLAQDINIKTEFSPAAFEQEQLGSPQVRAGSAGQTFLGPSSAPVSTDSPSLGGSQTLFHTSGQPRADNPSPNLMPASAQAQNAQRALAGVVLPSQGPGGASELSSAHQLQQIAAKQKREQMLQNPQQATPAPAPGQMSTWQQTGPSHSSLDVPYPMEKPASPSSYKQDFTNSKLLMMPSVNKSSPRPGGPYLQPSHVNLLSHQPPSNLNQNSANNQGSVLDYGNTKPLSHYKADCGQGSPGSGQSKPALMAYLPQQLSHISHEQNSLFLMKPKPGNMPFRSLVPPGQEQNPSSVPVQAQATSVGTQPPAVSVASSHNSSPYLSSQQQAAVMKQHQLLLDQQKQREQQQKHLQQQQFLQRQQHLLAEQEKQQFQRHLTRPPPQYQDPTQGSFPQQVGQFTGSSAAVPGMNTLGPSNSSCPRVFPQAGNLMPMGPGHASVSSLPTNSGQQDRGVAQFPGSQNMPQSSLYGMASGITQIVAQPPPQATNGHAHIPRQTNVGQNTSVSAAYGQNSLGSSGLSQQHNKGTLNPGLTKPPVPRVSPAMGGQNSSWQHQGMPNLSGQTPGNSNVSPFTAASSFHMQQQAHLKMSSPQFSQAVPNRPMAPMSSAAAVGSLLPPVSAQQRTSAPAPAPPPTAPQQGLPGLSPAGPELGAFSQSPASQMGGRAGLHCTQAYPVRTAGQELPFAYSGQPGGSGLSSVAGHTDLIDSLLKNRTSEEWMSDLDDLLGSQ
UniProt Q8WVR3: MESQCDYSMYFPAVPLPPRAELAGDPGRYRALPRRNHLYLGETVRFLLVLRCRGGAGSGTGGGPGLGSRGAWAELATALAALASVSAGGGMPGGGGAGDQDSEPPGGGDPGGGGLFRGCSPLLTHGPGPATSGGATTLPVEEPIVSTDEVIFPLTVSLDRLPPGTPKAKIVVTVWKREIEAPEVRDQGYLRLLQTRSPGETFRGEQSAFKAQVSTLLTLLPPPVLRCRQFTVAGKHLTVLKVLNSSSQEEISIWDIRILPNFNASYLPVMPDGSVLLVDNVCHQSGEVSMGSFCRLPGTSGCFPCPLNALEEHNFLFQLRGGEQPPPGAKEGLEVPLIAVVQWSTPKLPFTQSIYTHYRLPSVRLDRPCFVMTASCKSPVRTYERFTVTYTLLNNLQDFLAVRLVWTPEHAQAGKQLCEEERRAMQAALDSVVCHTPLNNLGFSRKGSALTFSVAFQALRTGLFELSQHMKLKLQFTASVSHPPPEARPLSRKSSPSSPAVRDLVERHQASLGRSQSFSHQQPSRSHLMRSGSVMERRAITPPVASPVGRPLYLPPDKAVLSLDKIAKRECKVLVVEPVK
UniProt P53778: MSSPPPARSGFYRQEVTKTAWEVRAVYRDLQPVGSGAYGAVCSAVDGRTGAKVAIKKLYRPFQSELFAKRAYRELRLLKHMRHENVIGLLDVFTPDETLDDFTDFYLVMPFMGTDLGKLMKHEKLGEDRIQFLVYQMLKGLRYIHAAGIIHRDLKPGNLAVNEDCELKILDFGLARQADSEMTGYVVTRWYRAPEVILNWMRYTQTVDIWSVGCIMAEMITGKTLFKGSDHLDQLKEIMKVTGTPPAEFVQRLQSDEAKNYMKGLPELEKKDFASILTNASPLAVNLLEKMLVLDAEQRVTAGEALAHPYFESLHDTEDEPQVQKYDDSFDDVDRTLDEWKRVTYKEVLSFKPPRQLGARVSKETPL
UniProt Q5TCQ9: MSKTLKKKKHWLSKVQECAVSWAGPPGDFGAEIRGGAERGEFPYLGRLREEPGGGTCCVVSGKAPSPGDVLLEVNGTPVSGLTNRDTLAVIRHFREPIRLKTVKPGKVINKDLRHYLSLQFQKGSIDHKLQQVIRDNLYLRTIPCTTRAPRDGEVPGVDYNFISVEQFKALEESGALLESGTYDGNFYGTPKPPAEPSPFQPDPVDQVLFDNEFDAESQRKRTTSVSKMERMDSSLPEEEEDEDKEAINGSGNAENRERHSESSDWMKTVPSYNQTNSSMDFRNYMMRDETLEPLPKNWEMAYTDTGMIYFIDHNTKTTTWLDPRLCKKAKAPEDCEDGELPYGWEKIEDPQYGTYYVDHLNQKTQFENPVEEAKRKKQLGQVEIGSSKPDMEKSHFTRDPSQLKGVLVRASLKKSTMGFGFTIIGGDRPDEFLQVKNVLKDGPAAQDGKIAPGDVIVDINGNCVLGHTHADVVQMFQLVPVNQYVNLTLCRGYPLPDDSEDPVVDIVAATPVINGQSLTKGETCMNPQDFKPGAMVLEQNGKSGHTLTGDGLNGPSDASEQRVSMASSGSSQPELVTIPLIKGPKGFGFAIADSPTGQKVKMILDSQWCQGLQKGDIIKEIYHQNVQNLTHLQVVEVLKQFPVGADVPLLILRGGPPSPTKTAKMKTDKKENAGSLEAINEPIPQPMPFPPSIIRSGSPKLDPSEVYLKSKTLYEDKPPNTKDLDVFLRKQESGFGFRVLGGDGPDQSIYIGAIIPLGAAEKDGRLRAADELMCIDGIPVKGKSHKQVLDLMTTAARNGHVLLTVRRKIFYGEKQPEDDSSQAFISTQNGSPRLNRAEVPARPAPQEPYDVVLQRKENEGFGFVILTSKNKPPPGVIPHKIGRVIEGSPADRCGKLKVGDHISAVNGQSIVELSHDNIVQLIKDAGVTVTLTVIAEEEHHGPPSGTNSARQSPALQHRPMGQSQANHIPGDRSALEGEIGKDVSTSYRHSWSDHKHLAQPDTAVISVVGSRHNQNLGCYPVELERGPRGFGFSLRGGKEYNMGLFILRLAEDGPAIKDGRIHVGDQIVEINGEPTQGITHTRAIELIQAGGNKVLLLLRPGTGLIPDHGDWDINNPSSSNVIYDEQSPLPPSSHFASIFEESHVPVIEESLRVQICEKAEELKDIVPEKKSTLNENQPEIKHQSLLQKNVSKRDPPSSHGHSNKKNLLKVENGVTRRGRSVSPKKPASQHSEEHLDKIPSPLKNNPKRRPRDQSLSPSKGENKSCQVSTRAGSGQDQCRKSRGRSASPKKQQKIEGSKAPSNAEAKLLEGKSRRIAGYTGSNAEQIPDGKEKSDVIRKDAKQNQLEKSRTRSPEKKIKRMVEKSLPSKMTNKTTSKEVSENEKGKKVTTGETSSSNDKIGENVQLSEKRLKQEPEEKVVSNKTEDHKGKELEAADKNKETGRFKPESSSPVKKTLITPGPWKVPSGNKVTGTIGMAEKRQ
UniProt Q96GA3: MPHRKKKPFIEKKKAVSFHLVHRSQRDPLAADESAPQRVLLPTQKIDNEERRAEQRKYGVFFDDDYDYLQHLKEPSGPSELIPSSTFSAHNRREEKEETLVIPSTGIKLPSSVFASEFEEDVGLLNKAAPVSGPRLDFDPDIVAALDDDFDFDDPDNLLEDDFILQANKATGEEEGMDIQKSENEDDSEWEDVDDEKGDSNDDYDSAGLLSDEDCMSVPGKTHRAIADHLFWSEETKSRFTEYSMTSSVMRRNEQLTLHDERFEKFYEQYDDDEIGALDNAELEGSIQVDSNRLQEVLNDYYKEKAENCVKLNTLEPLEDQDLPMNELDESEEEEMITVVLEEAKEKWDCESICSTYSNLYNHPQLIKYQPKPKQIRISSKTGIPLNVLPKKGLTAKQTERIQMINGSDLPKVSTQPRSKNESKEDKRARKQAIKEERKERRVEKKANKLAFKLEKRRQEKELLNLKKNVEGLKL
UniProt Q16539, whole entry, looked up: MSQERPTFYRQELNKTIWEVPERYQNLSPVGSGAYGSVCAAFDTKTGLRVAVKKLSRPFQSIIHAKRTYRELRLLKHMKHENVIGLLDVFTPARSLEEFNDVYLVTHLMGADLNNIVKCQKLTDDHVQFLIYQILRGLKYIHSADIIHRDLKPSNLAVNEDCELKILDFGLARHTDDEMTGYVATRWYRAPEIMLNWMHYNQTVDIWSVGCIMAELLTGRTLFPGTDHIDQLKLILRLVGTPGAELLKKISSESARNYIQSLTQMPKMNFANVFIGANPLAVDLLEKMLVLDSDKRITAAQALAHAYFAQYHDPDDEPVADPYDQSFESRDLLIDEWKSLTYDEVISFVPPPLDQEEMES
UniProt Q8IWC1: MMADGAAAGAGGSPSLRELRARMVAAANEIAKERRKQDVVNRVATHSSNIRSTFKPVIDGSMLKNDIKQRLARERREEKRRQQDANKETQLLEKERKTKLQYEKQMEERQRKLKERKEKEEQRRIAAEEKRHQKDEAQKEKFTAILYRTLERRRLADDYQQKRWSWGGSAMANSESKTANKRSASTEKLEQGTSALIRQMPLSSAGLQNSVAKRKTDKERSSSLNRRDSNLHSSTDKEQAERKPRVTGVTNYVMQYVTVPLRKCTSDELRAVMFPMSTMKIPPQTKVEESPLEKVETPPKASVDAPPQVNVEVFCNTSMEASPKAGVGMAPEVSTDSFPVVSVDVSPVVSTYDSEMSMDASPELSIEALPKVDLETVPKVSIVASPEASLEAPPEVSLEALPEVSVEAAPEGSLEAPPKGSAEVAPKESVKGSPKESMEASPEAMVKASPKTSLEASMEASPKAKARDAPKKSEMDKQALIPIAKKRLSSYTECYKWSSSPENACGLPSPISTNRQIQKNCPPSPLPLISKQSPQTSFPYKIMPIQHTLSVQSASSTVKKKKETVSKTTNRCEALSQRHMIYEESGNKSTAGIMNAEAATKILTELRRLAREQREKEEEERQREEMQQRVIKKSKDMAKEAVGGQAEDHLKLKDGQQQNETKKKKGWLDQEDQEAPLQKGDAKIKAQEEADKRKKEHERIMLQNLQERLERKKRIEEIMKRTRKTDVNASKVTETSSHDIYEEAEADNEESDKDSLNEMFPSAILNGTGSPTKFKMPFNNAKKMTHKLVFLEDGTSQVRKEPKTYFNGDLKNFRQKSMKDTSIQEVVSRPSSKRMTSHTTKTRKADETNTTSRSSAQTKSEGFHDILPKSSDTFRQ

crizotinib = compound: C[C@@H](Oc1cc(-c2cnn(C3CCNCC3)c2)cnc1N)c1c(Cl)ccc(F)c1Cl [crizotinib]
Summary of the method: as §1

[2] = compound: C[C@@H]1COCCN1C2=NC(=NC(=C2)C3(CC3)S(=O)(=O)C)C4=C5C=CNC5=CC=C4
Summary of the method: as §1

[3] = compound: C[C@H](C1=CC=C(C=C1)C(=O)NC2=C3C=CNC3=NC=C2)N
Summary of the method: as §1

gandotinib = compound: Cc1cc(Nc2cc(CN3CCOCC3)c3nc(C)c(Cc4ccc(Cl)cc4F)n3n2)n[nH]1 [gandotinib]
Summary of the method: as §1

[4] = compound: Cc1cc(SCc2sc(-c3ccc(C(F)(F)F)cc3)nc2C)ccc1OCC(=O)O
Summary of the method: as §1

doramapimod = compound: Cc1ccc(-n2nc(C(C)(C)C)cc2NC(=O)Nc2ccc(OCCN3CCOCC3)c3ccccc23)cc1 [doramapimod]
Summary of the method: as §1

ispinesib = compound: Cc1ccc(C(=O)N(CCCN)[C@@H](c2nc3cc(Cl)ccc3c(=O)n2Cc2ccccc2)C(C)C)cc1 [ispinesib]
Summary of the method: as §1

bafetinib = compound: Cc1ccc(NC(=O)c2ccc(CN3CC[C@H](N(C)C)C3)c(C(F)(F)F)c2)cc1Nc1nccc(-c2cncnc2)n1 [bafetinib]
Summary of the method: as §1

[5] = compound: Cc1cccc(CC(=O)N2CCc3c2ccc(-c2cn(C)c4ncnc(N)c24)c3F)n1
Summary of the method: as §1

nilotinib = compound: Cc1cn(-c2cc(NC(=O)c3ccc(C)c(Nc4nccc(-c5cccnc5)n4)c3)cc(C(F)(F)F)c2)cn1 [nilotinib]
Summary of the method: as §1

[6] = compound: Cc1nc(Nc2n[nH]c3c2CN(C(=O)N[C@H](CN(C)C)c2ccccc2)C3(C)C)c2sccc2n1
Summary of the method: as §1

dasatinib = compound: Cc1nc(Nc2ncc(C(=O)Nc3c(C)cccc3Cl)s2)cc(N2CCN(CCO)CC2)n1 [dasatinib]
Summary of the method: as §1

[7] = compound: Cc1ncc(-c2ccnc(Nc3ccc(S(C)(=O)=O)cc3)n2)n1C(C)C
Summary of the method: as §1

[8] = compound: Cn1cc(-c2ccc3c(c2)CCN3C(=O)Cc2cccc(C(F)(F)F)c2)c2c(N)ncnc21
Summary of the method: as §1

[9] = compound: Cn1cc(-c2ccc3nnc(C(F)(F)c4ccc5ncccc5c4)n3n2)cn1
Summary of the method: as §1

tipifarnib = compound: Cn1cncc1[C@@](N)(c1ccc(Cl)cc1)c1ccc2c(c1)c(-c1cccc(Cl)c1)cc(=O)n2C [tipifarnib]
Summary of the method: as §1

mubritinib = compound: FC(F)(F)c1ccc(/C=C/c2nc(COc3ccc(CCCCn4ccnn4)cc3)co2)cc1 [mubritinib]
Summary of the method: as §1

duvelisib = compound: C[C@H](Nc1ncnc2nc[nH]c12)c1cc2cccc(Cl)c2c(=O)n1-c1ccccc1 [duvelisib]
Summary of the method: as §1

tozasertib = compound: Cc1cc(Nc2cc(N3CCN(C)CC3)nc(Sc3ccc(NC(=O)C4CC4)cc3)n2)n[nH]1 [tozasertib]
Summary of the method: as §1

Row | Target | log2 fold change [1] | log2 fold change (crizotinib) | log2 fold change [2] | log2 fold change [3] | log2 fold change (gandotinib) | log2 fold change [4] | log2 fold change (doramapimod) | log2 fold change (ispinesib) | log2 fold change (bafetinib) | log2 fold change [5] | log2 fold change (nilotinib) | log2 fold change [6] | log2 fold change (dasatinib) | log2 fold change [7] | log2 fold change [8] | log2 fold change [9] | log2 fold change (tipifarnib) | log2 fold change (mubritinib) | log2 fold change (duvelisib) | log2 fold change (tozasertib)
1 | MAP2K3 isoform 3 (UniProt P46734) | inactive: 0.054 | inactive: -0.049 | inactive: -0.068 | inactive: 0.043 | inactive: -0.001 | inactive: -0.007 | inactive: 0.012 | inactive: -0.02 | inactive: -0.071 | inactive: 0.096 | inactive: -0.019 | inactive: 0.021 | inactive: -0.04 | inactive: -0.049 | inactive: 0.005 | inactive: -0.083 | inactive: 0.08 | inactive: -0.145 | – | –
2 | MAP3K20 isoform 2 (UniProt Q9NYL2) | inactive: 0.038 | inactive: -0.182 | inactive: 0.082 | – | – | – | inactive: 0.096 | – | – | – | inactive: 0.098 | inactive: 0.014 | – | inactive: -0.07 | – | – | inactive: 0.138 | inactive: -0.134 | – | –
3 | LYN (UniProt P07948) | inactive: -0.023 | inactive: -0.142 | inactive: -0.101 | inactive: -0.01 | inactive: -0.015 | inactive: 0.132 | inactive: 0.065 | inactive: -0.094 | inactive: 0.26 | inactive: 0.008 | inactive: 0.062 | active: -0.414 | active: -0.419 | inactive: -0.043 | inactive: -0.06 | inactive: 0.034 | inactive: -0.005 | inactive: -0.003 | – | –
4 | MAML1 (UniProt Q92585) | inactive: -0.022 | inactive: 0.074 | inactive: 0.053 | inactive: -0.056 | – | – | inactive: -0.038 | inactive: -0.006 | – | – | – | – | – | – | inactive: 0.087 | inactive: -0.009 | – | – | – | –
5 | LYN isoform 2 (UniProt P07948) | active: -0.791 | inactive: -0.211 | inactive: -0.281 | inactive: -0.294 | – | – | inactive: 0.159 | – | – | – | inactive: -0.001 | inactive: -0.418 | – | inactive: -0.006 | inactive: 0 | – | inactive: 0.075 | – | – | –
6 | MAP11 (UniProt Q8WVR3) | inactive: 0.078 | inactive: -0.03 | inactive: 0.115 | inactive: 0.129 | inactive: -0.032 | – | inactive: 0.153 | – | inactive: 0.053 | inactive: 0.018 | inactive: 0.053 | inactive: 0.292 | – | inactive: -0.017 | inactive: 0.108 | – | – | inactive: 0.013 | – | –
7 | MAP1LC3B2 (UniProt A6NCE7) | inactive: 0.035 | inactive: -0.047 | inactive: 0.054 | inactive: -0.144 | inactive: -0.012 | inactive: 0.011 | inactive: 0.003 | inactive: 0.02 | inactive: -0.044 | inactive: -0.029 | inactive: -0.006 | inactive: -0.023 | inactive: -0.024 | inactive: 0.072 | inactive: 0.019 | inactive: -0.011 | inactive: 0.007 | inactive: 0.018 | – | –
8 | MAP2K2 (UniProt P36507) | inactive: 0.013 | inactive: -0.055 | inactive: 0.069 | inactive: -0.052 | inactive: -0.069 | inactive: -0.01 | inactive: -0.038 | inactive: -0.058 | inactive: -0.081 | inactive: 0.007 | inactive: -0.003 | inactive: -0.154 | inactive: -0.092 | inactive: -0.018 | inactive: 0.023 | inactive: 0.098 | inactive: 0.015 | inactive: 0.017 | – | –
9 | MAPK12 (UniProt P53778) | inactive: -0.005 | – | inactive: 0.105 | inactive: -0.106 | inactive: 0.037 | inactive: 0.01 | – | inactive: -0.036 | inactive: -0.037 | inactive: 0.008 | inactive: -0.054 | inactive: -0.254 | inactive: -0.079 | inactive: -0.035 | active: 0.34 | inactive: -0.077 | inactive: -0.007 | inactive: 0.061 | – | –
10 | MARK2 (UniProt E9PC69) | inactive: 0.068 | inactive: -0.323 | inactive: -0.049 | inactive: 0.15 | – | inactive: 0.12 | inactive: 0.119 | inactive: -0.232 | inactive: 0.116 | – | inactive: -0.007 | inactive: -0.451 | inactive: -0.158 | inactive: -0.031 | inactive: -0.038 | inactive: -0.088 | inactive: -0.215 | – | – | –
11 | MAGI3 isoform 1 (UniProt Q5TCQ9) | inactive: 0.181 | inactive: 0.067 | inactive: 0.007 | – | – | inactive: 0.082 | inactive: 0.038 | – | inactive: 0.019 | – | – | – | inactive: 0.074 | – | – | – | – | inactive: 0.197 | inactive: -0.116 | inactive: -0.035
12 | LTV1 (UniProt Q96GA3) | inactive: 0.006 | inactive: -0.143 | inactive: -0.189 | inactive: 0.294 | inactive: 0.199 | inactive: 0.009 | inactive: 0.128 | inactive: -0.271 | inactive: 0.137 | inactive: -0.039 | inactive: -0.047 | inactive: 0.137 | inactive: 0.025 | inactive: 0.009 | inactive: -0.112 | inactive: -0.09 | inactive: 0.064 | inactive: 0.042 | – | –
13 | MAPK14 isoform 2 (UniProt Q16539) | inactive: 0.087 | inactive: -0.062 | inactive: -0.018 | inactive: -0.013 | inactive: -0.022 | inactive: 0.017 | – | inactive: -0.038 | active: 1.73 | inactive: -0.038 | active: 1.67 | inactive: 0.176 | active: 1.37 | inactive: 0.037 | inactive: -0.071 | inactive: -0.02 | inactive: -0.049 | inactive: 0 | – | –
14 | MAP7D3 (UniProt Q8IWC1) | inactive: -0.058 | – | inactive: -0.306 | inactive: 0.405 | inactive: 0.074 | – | – | inactive: -0.114 | inactive: 0.346 | inactive: -0.058 | inactive: 0.023 | inactive: 0.167 | – | inactive: -0.039 | inactive: -0.045 | inactive: -0.161 | – | – | – | –

Look-ups from the entries so far:
Entry for MAP2K3 isoform 3 (UniProt P46734) under log2 fold change [2]: inactive: -0.068
Entry for MAPK12 (UniProt P53778) under log2 fold change [9]: inactive: -0.077
